# Measured values reported in the supplement of paper PMC3334620.
# In all, about 33,000 sequences were measured (“E-score (-0.5 to 0.5)”: median about -0.016, highest 2% from about 0.3 on). This is one part of the list.
# Biological target: T1, Yer184c (UniProt P39961)
# T1 sequence: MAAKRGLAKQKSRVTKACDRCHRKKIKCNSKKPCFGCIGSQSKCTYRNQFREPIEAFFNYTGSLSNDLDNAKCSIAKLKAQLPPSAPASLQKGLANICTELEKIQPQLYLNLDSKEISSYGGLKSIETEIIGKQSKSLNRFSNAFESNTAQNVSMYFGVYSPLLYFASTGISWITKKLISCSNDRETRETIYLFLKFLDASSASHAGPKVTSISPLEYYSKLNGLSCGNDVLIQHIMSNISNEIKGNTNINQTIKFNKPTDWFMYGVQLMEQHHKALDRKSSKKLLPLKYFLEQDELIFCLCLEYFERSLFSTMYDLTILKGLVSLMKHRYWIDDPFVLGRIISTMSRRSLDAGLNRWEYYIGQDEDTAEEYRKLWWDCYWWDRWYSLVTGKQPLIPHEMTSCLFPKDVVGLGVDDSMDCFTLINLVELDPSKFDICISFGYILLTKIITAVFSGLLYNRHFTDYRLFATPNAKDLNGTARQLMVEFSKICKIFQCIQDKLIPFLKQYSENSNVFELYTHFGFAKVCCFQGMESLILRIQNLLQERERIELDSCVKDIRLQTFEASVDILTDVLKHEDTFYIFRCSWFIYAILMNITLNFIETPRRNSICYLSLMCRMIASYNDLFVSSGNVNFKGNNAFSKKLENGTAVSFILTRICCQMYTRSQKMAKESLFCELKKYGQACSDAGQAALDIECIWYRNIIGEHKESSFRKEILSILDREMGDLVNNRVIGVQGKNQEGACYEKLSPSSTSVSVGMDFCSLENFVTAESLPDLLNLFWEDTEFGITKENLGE
# Test: PBM E-score (8-mer binding enrichment) (E-score (-0.5 to 0.5)); higher = stronger / more preferred TF binding
# Conditions: protein concentration: 100 nM; construct: GST-full length
# Experimental: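 Universal 'all 10-mer' protein binding microarrays (Agilent AMADID 015681) probed with GST-tagged S. cerevisiae TFs (full-length or DBD) made by in vitro transcription/translation (PURExpress), about 100-200 nM. Bound TF was detected with fluorescent anti-GST. Each ungapped 8-mer (which stands for itself and its reverse complement) is scored by the PBM enrichment score (E-score), a modified Wilcoxon-Mann-Whitney statistic from -0.5 to +0.5, computed with the Universal PBM Analysis Suite. Scale: above 0.35 generally sequence-specific binding.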
row,Sequence,PBM E-score
1,ACGTGTTC,-0.0331
2,TACGCTAA,0.0349
3,AGTTCCAC,-0.00257
4,CATTCAAG,-0.043
5,CTACTTAA,-0.0571
6,AGTCCTAG,-0.258
7,CCTCCGTA,-0.0207
8,GAGTATGC,-0.00892
9,GACACGTA,-0.0547
10,GGCTCACA,-0.0762
11,CAGCGTAG,-0.00772
12,CATGTCGG,0.106
13,AGCGTCTC,-0.23
14,AAGGACCG,0.0399
15,CAGTCGTC,-0.134
16,CATCGAGC,-0.0549
17,CTCCGGTC,0.248
18,GAATGGCC,0.0188
19,CCTCCTGA,-0.216
20,ATACAGTA,0.114
21,CCGGGCAG,0.186
22,CAGCCGCG,0.137

# Nothing new here: entries from further up.
row,Sequence,PBM E-score
10,GGCTCACA,-0.0762
11,CAGCGTAG,-0.00772

# (cont.)

row,Sequence,PBM E-score
1,ACCGTGAC,-0.0623
2,ACTTGACC,0.106
3,CGTGGTAC,-0.111
4,AAAAATGG,0.0645
5,TCCATACA,0.0788
6,TATTTCCA,0.0677
7,CGGAGCCC,-0.177
8,AGAAGACA,0.00189
9,AAGCGTTG,-0.128
10,AGGAGAGC,-0.29
11,CTATAGCA,0.0196
12,AAAGAGAC,0.0506
13,ATGCATCG,0.209
14,AGCGTCCG,-0.0165
15,AGTGTGAA,0.0486
16,GAATGTTA,0.154
17,AATTTAGG,0.136
18,ACGGCGAC,0.14
19,GATGCTAA,0.0993
20,ACTCCGGC,0.326
21,AAGCATAA,0.0496
22,GACAACTA,-0.023

row,Sequence,PBM E-score
1,ATCGTAGC,-0.0779
2,AGAGGCAT,-0.00025
3,AGACATAC,-0.0739
4,CCAGCAAC,0.0735
5,CGGATTTA,0.237
6,ATGAGATA,0.124
7,CCCGTCTC,-0.0981
8,TCCGAGGA,0.196
9,CCGGTCCG,0.338
10,GGACTTAC,0.00774
11,GATTGGCA,-0.0664
12,CTACCCTC,-0.288
13,ACCAGCAA,0.144
14,ACGAGCCT,-0.239
15,AGCTAGAC,-0.028
16,AGCGTATC,-0.14
17,CGTAGGCC,-0.0105
18,GCCCTCGA,-0.255
19,ATGGGTTG,-0.0884
20,CTAAGCAG,-0.0601
21,GCACCCAA,0.0119
22,TCAATCCA,-0.0474

row,Sequence,PBM E-score
1,GCGATCAA,-0.057
2,GTCATGTA,-0.0449
3,CCCTTTGC,-0.137
4,ATTTCGGC,0.373
5,AGTGTTTA,0.201
6,CAGCTGCC,0.134
7,AGCCAAGA,-0.128
8,GTCAGTGA,-0.0735
9,TCCGATCA,0.255
10,ACATATAT,0.187
11,CACTACGG,0.148
12,ACGACGGC,-0.0816
13,AGTGACGG,0.0316
14,ACTTTGCC,0.0966
15,AGAGAAAA,0.108
16,ATTGGACG,-0.0777
17,GTATATAA,0.134
18,CAAGCATG,-0.115
19,CAATTCAA,0.0828
20,ACCTTAAT,-0.124
